# Data: PubChem BioAssay AID256 (DTP/NCI, 2004)
# The list does not hold the whole screen: it is rich in T/C values a quarter to a half above the control, in often repeated tests (any T/C) and in doses without a T/C. Further doses and runs are listed elsewhere. T/C is the treated group as % of the vehicle group. Some entries give survivors of the animals treated and no T/C: the source holds a T/C of zero for them, seemingly a mark for toxic or unscored doses. Some doses without a T/C left all or most animals alive at the check, yet need not have been tolerated: the source hardly ever lists a survival T/C far under the control, and the zero likely stands for such cases as well. Counts of survivors are from the toxicity check (mostly the fifth day) where no day follows; animals may have died later. Schedules are NCI's codes, read here as Q, the interval in days (D) or hours (H), X, the number of doses. Some entries were tested several times; their values stand side by side, smallest first. Some molecules as drawn cover several salts, stereoisomers or complexes of the source; a dose is that of the sample tested. Where survival is the endpoint, this PubChem deposit counts one and a half times the control or more as active, and values a quarter to a half above the control carry no call in these data; other NCI protocols may use other cut-offs.
# Tested on: CD2F1 mice, L1210 leukemia ip, survival T/C
# Experiment: NCI In Vivo Anticancer Drug Screen. Data for tumor model L1210 Leukemia (intraperitoneal) in CD2F1 (CDF1) mice
# Details: T/C endpoint: mean survival time, higher T/C = longer survival
# In short: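 Mice carrying a transplanted tumor received test compound or vehicle alone. The value is the measurement in the treated group divided by that in the vehicle-treated control group.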
# [1] = dose: 400.0 mg/kg/injection, schedule: Q04DX002 (ip), vehicle: saline with Tween-80
# [2] = dose: 100.0 mg/kg/injection, schedule: Q01DX009 (ip), vehicle: saline with Tween-80
# [3] = dose: 200.0 mg/kg/injection, schedule: Q04DX003 (ip), vehicle: saline with Tween-80
# [4] = dose: 400.0 mg/kg/injection, schedule: Q04DX003 (ip), vehicle: saline with Tween-80
# [5] = dose: 400.0 mg/kg/injection, schedule: Q01DX009 (ip), vehicle: saline with Tween-80
# [6] = dose: 200.0 mg/kg/injection, schedule: Q01DX001 (ip), vehicle: saline
# [7] = dose: 400.0 mg/kg/injection, schedule: Q01DX001 (ip), vehicle: saline
structure (smiles),measurement,setting,value
O=C(NO)Nc1ccc(Cl)cc1,survivor count,"dose: 140.0 mg/kg/injection, schedule: Q03HX024 (ip), vehicle: saline with Tween-80",7 of 8
same,survivor count,"dose: 210.0 mg/kg/injection, schedule: Q03HX024 (ip), vehicle: saline with Tween-80",5 of 8
CN1CCC(=C(C#N)c2ccccc2)CC1,survivor count,"dose: 50.0 mg/kg/injection, schedule: Q01DX009 (ip), vehicle: saline",2 of 6
O=S(=O)(O)c1ccc2ncccc2c1,survivor count,"dose: 100.0 mg/kg/injection, schedule: Q04DX002 (ip), vehicle: saline with Tween-80",0 of 3 and 1 of 3
same,survivor count,"dose: 200.0 mg/kg/injection, schedule: Q04DX002 (ip), vehicle: saline with Tween-80",0 of 3
same,survivor count,[1],0 of 3
CCCCC(NC(=O)CCl)C(=O)O (configuration not stated),survivor count,[1],0 of 3
S=C(S)NN1CCCC1,survivor count,[2],3 of 6
same,survivor count,[3],6 of 6
same,survivor count,[4],2 of 6
Brc1ccc(C[N+]23CN4CN(CN(C4)C2)C3)cc1,survivor count,[5],0 of 6
C=CC1CCCCC1C=C (configuration not stated),survivor count,[2],3 of 6
same,survivor count,"dose: 200.0 mg/kg/injection, schedule: Q01DX009 (ip), vehicle: saline with Tween-80",0 of 6
same,survivor count,[5],2 of 6
Cc1nc2n3c(nc(C)c13)=CCC2,survivor count,[3],6 of 6
same,survivor count,[4],1 of 6
NC(CSS(=O)(=O)O)=NCCSS(=O)(=O)O,survivor count,"dose: 400.0 mg/kg/injection, schedule: Q04DX003 (ip), vehicle: saline",0 of 6
CSC(=S)N/N=C/c1ccccc1O,survivor count,"dose: 50.0 mg/kg/injection, schedule: Q01DX009 (ip), vehicle: saline with Tween-80",5 of 6
same,survivor count,"dose: 100.0 mg/kg/injection, schedule: Q04DX003 (ip), vehicle: saline with Tween-80",4 of 6
same,survivor count,[3],0 of 6
same,survivor count,[4],0 of 6
S=c1nn[nH]n1-c1ccccc1,survivor count,"dose: 400.0 mg/kg/injection, schedule: Q01DX009 (ip), vehicle: saline",0 of 6
O=C(OCc1ccccc1)C1CC1 (tested in a mixture with another compound),survivor count,"dose: 400.0 mg/kg/injection, schedule: Q01DX005 (ip), vehicle: saline with Tween-80",0 of 3
CCC[CH2][Sn]1([CH2]CCC)[O]C(=O)c2c(Cl)c(Cl)c(Cl)c(Cl)c2C(=O)[O]1,survivor count,"dose: 40.0 mg/kg/injection, schedule: Q01DX001 (ip), vehicle: saline",2 of 4
same,survivor count,"dose: 80.0 mg/kg/injection, schedule: Q01DX001 (ip), vehicle: saline",2 of 4
same,survivor count,"dose: 100.0 mg/kg/injection, schedule: Q01DX001 (ip), vehicle: saline",0 of 4
same,survivor count,[6],0 of 4
same,survivor count,[7],0 of 4
Nc1ccn(C2CC(CO)C(O)C2O)c(=O)n1 (configuration not stated),T/C,"dose: 67.0 mg/kg/injection, schedule: Q01DX009 (ip), vehicle: saline",140 % of control
CN1CCc2cc3c(cc2C1)OCO3,survivor count,[6],0 of 6
same,survivor count,"dose: 300.0 mg/kg/injection, schedule: Q01DX001 (ip), vehicle: other",0 of 6
same,survivor count,[7],0 of 6
CC1CC(C)(C)C(C[NH-])C1[NH-].[Cl][Pt+2][Cl] (configuration not stated),T/C,"dose: 3.12 mg/kg/injection, schedule: Q04DX003 (ip), vehicle: saline",132 % of control
same,T/C,"dose: 25.0 mg/kg/injection, schedule: Q04DX003 (ip), vehicle: saline",129 and 137 % of control
same,T/C,"dose: 50.0 mg/kg/injection, schedule: Q04DX003 (ip), vehicle: saline",132 % of control
same,survivor count,"dose: 200.0 mg/kg/injection, schedule: Q04DX003 (ip), vehicle: saline",4 of 6
COC1=CC(=O)C(OC)=C(OC)C1=O,survivor count,[2],0 of 6
